# Data published in article PMC11822393.
# Results are given in words; binding and its absence hold for the method and conditions named. A result given as binding can be weak or reduced; the word gives no strength.
# Biological target: T1, AtPUB19 (Arabidopsis thaliana) (UniProt O80742)
# T1 sequence: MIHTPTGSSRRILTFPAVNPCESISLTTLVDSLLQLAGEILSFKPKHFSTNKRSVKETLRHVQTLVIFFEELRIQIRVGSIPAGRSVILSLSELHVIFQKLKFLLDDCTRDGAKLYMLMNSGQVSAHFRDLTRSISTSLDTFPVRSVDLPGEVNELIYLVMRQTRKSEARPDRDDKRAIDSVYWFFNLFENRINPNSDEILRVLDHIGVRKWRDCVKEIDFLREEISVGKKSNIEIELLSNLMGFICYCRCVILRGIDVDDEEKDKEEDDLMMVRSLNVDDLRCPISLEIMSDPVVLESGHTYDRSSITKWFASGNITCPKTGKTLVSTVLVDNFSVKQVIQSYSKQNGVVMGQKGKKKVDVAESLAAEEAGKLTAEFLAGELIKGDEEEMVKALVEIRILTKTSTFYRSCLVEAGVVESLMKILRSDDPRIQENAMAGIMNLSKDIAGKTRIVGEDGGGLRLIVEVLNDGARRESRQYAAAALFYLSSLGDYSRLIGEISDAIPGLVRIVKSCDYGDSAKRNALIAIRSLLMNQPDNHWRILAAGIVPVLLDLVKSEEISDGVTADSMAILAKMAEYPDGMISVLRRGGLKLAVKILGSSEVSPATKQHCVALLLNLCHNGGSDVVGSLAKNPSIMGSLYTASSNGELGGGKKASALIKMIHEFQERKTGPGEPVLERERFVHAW
# Assay: two-hybrid; AtPUB19 against AtICE1, AtICE2, AtCBF1 and AtCBF2 (Supplemental Fig. S6); the method is not named in the sentences, which stand among the Y2H results; vectors not told
substance,measurement,value
AtICE2 (Arabidopsis thaliana),binding,binds
